Experimental data: PubChem BioAssay AID686937 (Drosophila RNAi Screening Center, 2013)

- Purpose: 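Genes in the fly needed for secretion of protein constitutively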 (primary screen)
- Cell system: Drosophila S2 cells expressing secreted horseradish peroxidase
- Reagents: long dsRNA against Drosophila genes
- Duration: about 5.5 days (5 days dsRNA, then 12 h reporter induction)
- Conditions: reporter expression induced after 5 days of dsRNA, read 12 h later; inducer not stated
- Measurement: 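Chemiluminescent measurement of peroxidase in the medium 12 h after reporter induction, following 5 days of dsRNA, given as a z-score per plate; higher means more secretion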
- Reading the numbers: z-score: higher = more reporter secreted into medium
The screen tested about 23,000 reagents; below is a random part of those that have a named target and a result. 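Reduced-secretion tags in replicate 1 do not always agree with the z-scores; no criterion for assigning the tags was given.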 Reagent sequences are not shown. Not stated in the record: the amount of reagent.

Target gene | dsRNA | z-score, replicate 1 | z-score, replicate 2 | z-score, replicate 3 | z-score, replicate 4 | phenotype, replicate 1
Fancd2 (GeneID 2768674) | DRSC15208 | 0.05 | 0.3 | – | – | –
Fancd2 (GeneID 2768674) | DRSC22763 | -1.1 | -0.26 | – | – | –
Zw (GeneID 32974) | DRSC20303 | -7.25 | 0.37 | – | – | reduced secretion
Irbp18 (GeneID 39243) | DRSC10612 | 0.38 | 0.24 | – | – | –
PpN58A (GeneID 37493) | DRSC04642 | 0.1 | 0.18 | – | – | –
CG10341 (GeneID 35125) | DRSC02040 | 0.31 | 0.1 | – | – | –
RpL15 (GeneID 3354918) | DRSC20963 | -2.48 | -4.01 | – | – | reduced secretion
CG13157 (GeneID 36355) | DRSC06282 | 0.15 | 0.32 | – | – | –
CG4982 (GeneID 39794) | DRSC10465 | 0.67 | 0.62 | – | – | –
Rhau (GeneID 35339) | DRSC03200 | 0.21 | 0.32 | – | – | –
Atg5 (GeneID 31666) | DRSC18112 | 0.56 | 0.43 | – | – | –
Tpc1 (GeneID 41316) | DRSC15614 | -0.09 | -0.08 | – | – | –
Tpc1 (GeneID 41316) | DRSC16074 | 0.21 | 0.21 | – | – | –
Paf-AHalpha (GeneID 32529) | DRSC20267 | 0.27 | 0.07 | – | – | –
CG31855 (GeneID 318983) | DRSC02968 | 1.26 | 0.45 | – | – | –
Cep135 (GeneID 39647) | DRSC09345 | 0.21 | -0.13 | – | – | –
Cep135 (GeneID 39647) | DRSC10244 | 0.2 | 0.32 | – | – | –
Cog2 (GeneID 41870) | DRSC16987 | -1.65 | -1.68 | – | – | reduced secretion
Obp57a (GeneID 246670) | DRSC22047 | 0.5 | 0.3 | – | – | –
RpL27 (GeneID 43103) | DRSC15638 | -2.67 | -4.66 | – | – | reduced secretion
da (GeneID 34413) | DRSC03517 | -0.05 | 0.18 | – | – | –
Ibf1 (GeneID 41103) | DRSC16419 | -0.02 | 0.42 | – | – | –
CG31740 (GeneID 261618) | DRSC01619 | 0.33 | 0.04 | – | – | –
CG11249 (GeneID 40409) | DRSC11645 | 0.26 | 0.35 | – | – | –
CG43091 (GeneID 12798514) | DRSC13571 | 0.42 | 0.28 | – | – | –
MED8 (GeneID 37305) | DRSC06426 | -3.77 | -3.57 | – | – | reduced secretion
CG14567 (GeneID 40420) | DRSC11728 | 0.12 | 0.11 | – | – | –
Hr96 (GeneID 42993) | DRSC16707 | 0.18 | 0.17 | – | – | –
I-t (GeneID 41414) | DRSC16713 | 0.05 | -0.33 | – | – | –
CG6287 (GeneID 34554) | DRSC02947 | 0.14 | 0.16 | – | – | –
CG8089 (GeneID 36679) | DRSC07074 | 0.4 | 0.47 | – | – | –
CG9316 (GeneID 35333) | DRSC03195 | 0.14 | 0.28 | – | – | –
Faf2 (GeneID 35129) | DRSC03325 | 0.44 | 0.21 | – | – | –
CG10019 (GeneID 33600) | DRSC00279 | 0.01 | 0.1 | – | – | –
rod (GeneID 43719) | DRSC17047 | 0.13 | 0.33 | – | – | –
CG9297 (GeneID 41688) | DRSC16469 | 0.23 | 0.29 | – | – | –
RhoGAP1A (GeneID 5740235) | DRSC20649 | 0.5 | 0.25 | – | – | –
RhoGAP1A (GeneID 5740235) | DRSC20651 | 0.35 | 0.16 | – | – | –
CG13443 (GeneID 37351) | DRSC06403 | 0.74 | 0.47 | – | – | –
Cdc50 (GeneID 32615) | DRSC20224 | 0.45 | -0.31 | – | – | –
CG8654 (GeneID 37275) | DRSC07231 | -0.27 | -0.2 | – | – | –
Drsl1 (GeneID 326207) | DRSC22490 | -0.18 | 0.9 | – | – | –
CG11060 (GeneID 35641) | DRSC06029 | 0.03 | -0.04 | – | – | –
fz2 (GeneID 40090) | DRSC09595 | 0.31 | -0.52 | – | – | –
fz2 (GeneID 40090) | DRSC10087 | 0.35 | 0.29 | 0.27 | 0.15 | –
fz2 (GeneID 40090) | DRSC11349 | 0.46 | 0.3 | – | – | –
CG14314 (GeneID 42179) | DRSC14793 | 0.28 | 0.43 | – | – | –
CheB42a (GeneID 2768721) | DRSC22881 | -0.83 | 0.37 | – | – | –
CG9030 (GeneID 32427) | DRSC20139 | 0.06 | 0.27 | – | – | –
CSN8 (GeneID 49077) | DRSC02257 | -0.46 | -0.87 | – | – | –
hob (GeneID 38395) | DRSC08426 | 0.3 | 0.42 | – | – | –
Klp68D (GeneID 39332) | DRSC11206 | -0.11 | -0.05 | – | – | –
CG12828 (GeneID 5740660) | DRSC06177 | 0.19 | 0.17 | – | – | –
GPHR (GeneID 36682) | DRSC07075 | -0.14 | 0.2 | – | – | –
CG17806 (GeneID 42142) | DRSC15276 | 0.28 | 0.3 | – | – | –
Semp1 (GeneID 34914) | DRSC01874 | 0.33 | 0.32 | – | – | –
Tsp96F (GeneID 43127) | DRSC14147 | 0.46 | 0.55 | – | – | –
CG4701 (GeneID 34858) | DRSC01952 | -0.85 | -1.05 | – | – | –
CG6654 (GeneID 41831) | DRSC16084 | 0.5 | 0.42 | – | – | –
Psn (GeneID 40260) | DRSC11743 | 0.22 | 0.26 | – | – | –
Rca1 (GeneID 33959) | DRSC03407 | -0.75 | -1.19 | – | – | –

Part of the list above in another layout.
CSN8 (GeneID 49077) [DRSC02257] — z-score, replicate 1: -0.46; z-score, replicate 2: -0.87
hob (GeneID 38395) [DRSC08426] — z-score, replicate 1: 0.3; z-score, replicate 2: 0.42
Klp68D (GeneID 39332) [DRSC11206] — z-score, replicate 1: -0.11; z-score, replicate 2: -0.05
CG12828 (GeneID 5740660) [DRSC06177] — z-score, replicate 1: 0.19; z-score, replicate 2: 0.17
GPHR (GeneID 36682) [DRSC07075] — z-score, replicate 1: -0.14; z-score, replicate 2: 0.2
CG17806 (GeneID 42142) [DRSC15276] — z-score, replicate 1: 0.28; z-score, replicate 2: 0.3
Semp1 (GeneID 34914) [DRSC01874] — z-score, replicate 1: 0.33; z-score, replicate 2: 0.32
Tsp96F (GeneID 43127) [DRSC14147] — z-score, replicate 1: 0.46; z-score, replicate 2: 0.55
CG4701 (GeneID 34858) [DRSC01952] — z-score, replicate 1: -0.85; z-score, replicate 2: -1.05
CG6654 (GeneID 41831) [DRSC16084] — z-score, replicate 1: 0.5; z-score, replicate 2: 0.42
Psn (GeneID 40260) [DRSC11743] — z-score, replicate 1: 0.22; z-score, replicate 2: 0.26
Rca1 (GeneID 33959) [DRSC03407] — z-score, replicate 1: -0.75; z-score, replicate 2: -1.19

Additional results follow.
Target gene | dsRNA | z-score, replicate 1 | z-score, replicate 2 | z-score, replicate 3 | z-score, replicate 4 | phenotype, replicate 1
tor (GeneID 35717) | DRSC07707 | 0.05 | 0.25 | – | – | –
Arpc1 (GeneID 34793) | DRSC03438 | 0.03 | 0.17 | – | – | –
Gr10b (GeneID 32085) | DRSC19477 | 0.28 | 0.13 | – | – | –
esc (GeneID 34595) | DRSC03529 | 0.21 | 0.32 | – | – | –
CG17127 (GeneID 34489) | DRSC02581 | 0.18 | 0.4 | – | – | –
glob2 (GeneID 40807) | DRSC12560 | 0.22 | -0.15 | – | – | –
Tdc2 (GeneID 246620) | DRSC04999 | 0.24 | 0.27 | – | – | –
Wnt2 (GeneID 35975) | DRSC05160 | 0.08 | – | – | – | –
Wnt2 (GeneID 35975) | DRSC07574 | 0.22 | 0.23 | – | – | –
Pkg21D (GeneID 33253) | DRSC00772 | 0.12 | 0.24 | – | – | –
CG30015 (GeneID 36147) | DRSC05241 | 0.72 | 0.42 | – | – | –
CG30015 (GeneID 36147) | DRSC07027 | -1.49 | -0.99 | – | – | –
CG30015 (GeneID 36147) | DRSC07028 | 0.22 | 0.17 | – | – | –
alpha-Est4aPsi (GeneID 3772290) | DRSC12473 | 0.05 | 0.29 | – | – | –
fax (GeneID 39826) | DRSC11345 | -0.68 | -1.11 | – | – | –
CG31777 (GeneID 261617) | DRSC00201 | 0.43 | 0.42 | – | – | –
CG10298 (GeneID 40779) | DRSC12522 | 0.11 | 0.34 | – | – | –
GlcAT-P (GeneID 39262) | DRSC10603 | 0.05 | 0.26 | – | – | –
GlcAT-P (GeneID 39262) | DRSC10604 | -0.05 | 0.1 | – | – | –
CG6959 (GeneID 41434) | DRSC16151 | 0.11 | 0.86 | – | – | –
CG30056 (GeneID 246422) | DRSC21752 | -0.62 | -0.85 | – | – | reduced secretion
CG42749 (GeneID 31438) | DRSC18091 | 0.43 | 0.54 | – | – | –
CG42749 (GeneID 31438) | DRSC18092 | 0.34 | 0.27 | – | – | –
Sprn (GeneID 39344) | DRSC10132 | 0.08 | 0.19 | – | – | –
zda (GeneID 37144) | DRSC06936 | -4.78 | -5.23 | – | – | reduced secretion
peng (GeneID 33112) | DRSC20583 | 0.31 | 0.39 | – | – | –
Cnep1r1 (GeneID 3355167) | DRSC20620 | 0.39 | 0.31 | – | – | –
Vha16-5 (GeneID 34482) | DRSC02986 | 0.88 | 0.49 | – | – | –
Tsp42Ef (GeneID 35615) | DRSC06191 | -8.36 | 0.08 | – | – | reduced secretion
hui (GeneID 36648) | DRSC05977 | 0.68 | 0.49 | – | – | –
Dph3 (GeneID 41352) | DRSC14923 | 0.45 | 0.12 | – | – | –
wapl (GeneID 31187) | DRSC18851 | 0.22 | 0.21 | – | – | –
CG3735 (GeneID 37803) | DRSC04411 | -0.07 | 0.06 | – | – | –
CG34106 (GeneID 4379891) | DRSC01578 | 0.26 | 0.09 | – | – | –
PCB (GeneID 36020) | DRSC05939 | 0.41 | 0.37 | – | – | –
Gbp2 (GeneID 36937) | DRSC06069 | 0.09 | 0.1 | – | – | –
OtopLb (GeneID 33539) | DRSC00594 | 0.04 | 0.35 | – | – | –
defl (GeneID 39141) | DRSC10300 | 1.13 | 0.75 | – | – | –
CG13127 (GeneID 34335) | DRSC02223 | -0.49 | 0.06 | – | – | –
CG15198 (GeneID 32065) | DRSC19645 | 0.32 | 0.76 | – | – | –
BG642163 (GeneID 4379888) | DRSC00342 | 0.26 | 0.28 | – | – | –
BG642163 (GeneID 4379888) | DRSC00343 | 0.11 | 0.31 | – | – | –
lncRNA:CR32658 (GeneID 3772624) | DRSC19402 | 0.28 | 0.73 | – | – | –
